The values that follow come from the supplement of paper PMC10849652.

By UniProt entry, the sequences of proteins in these tests, tags left out. Where a name states a change or a piece, a line headed by the entry shows the natural chain unless it says otherwise.
UniProt P02750: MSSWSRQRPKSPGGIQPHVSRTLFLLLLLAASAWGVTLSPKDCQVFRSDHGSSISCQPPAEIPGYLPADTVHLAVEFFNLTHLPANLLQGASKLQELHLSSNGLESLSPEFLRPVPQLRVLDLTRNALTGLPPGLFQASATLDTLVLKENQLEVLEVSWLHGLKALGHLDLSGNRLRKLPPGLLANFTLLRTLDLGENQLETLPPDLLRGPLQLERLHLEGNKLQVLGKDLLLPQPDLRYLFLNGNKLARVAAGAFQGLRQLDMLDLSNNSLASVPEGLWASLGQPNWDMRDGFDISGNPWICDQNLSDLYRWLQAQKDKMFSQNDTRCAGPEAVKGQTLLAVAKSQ
UniProt P49917: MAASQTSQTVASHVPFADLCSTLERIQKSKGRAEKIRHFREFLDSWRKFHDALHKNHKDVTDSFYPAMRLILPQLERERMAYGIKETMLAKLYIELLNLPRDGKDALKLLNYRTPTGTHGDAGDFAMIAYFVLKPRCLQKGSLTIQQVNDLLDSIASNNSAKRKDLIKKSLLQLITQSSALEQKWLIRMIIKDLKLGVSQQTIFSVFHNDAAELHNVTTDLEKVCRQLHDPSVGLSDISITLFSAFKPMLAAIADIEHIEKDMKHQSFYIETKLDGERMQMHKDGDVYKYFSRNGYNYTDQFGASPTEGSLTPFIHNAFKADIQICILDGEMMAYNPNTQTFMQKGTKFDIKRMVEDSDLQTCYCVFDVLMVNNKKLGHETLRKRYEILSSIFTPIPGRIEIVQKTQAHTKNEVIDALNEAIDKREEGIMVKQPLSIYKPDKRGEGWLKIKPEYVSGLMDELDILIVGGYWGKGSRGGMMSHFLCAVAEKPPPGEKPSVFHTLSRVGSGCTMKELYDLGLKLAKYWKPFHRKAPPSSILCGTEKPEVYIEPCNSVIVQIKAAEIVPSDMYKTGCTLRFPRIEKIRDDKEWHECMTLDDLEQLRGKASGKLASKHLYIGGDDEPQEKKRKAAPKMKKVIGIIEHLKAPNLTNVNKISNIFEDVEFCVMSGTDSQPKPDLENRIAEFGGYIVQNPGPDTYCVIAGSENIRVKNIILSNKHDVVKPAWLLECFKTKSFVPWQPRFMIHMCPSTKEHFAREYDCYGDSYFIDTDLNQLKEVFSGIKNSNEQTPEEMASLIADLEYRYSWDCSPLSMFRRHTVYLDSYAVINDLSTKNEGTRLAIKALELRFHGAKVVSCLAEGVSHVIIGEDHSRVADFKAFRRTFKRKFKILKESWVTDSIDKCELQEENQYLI
UniProt Q07954: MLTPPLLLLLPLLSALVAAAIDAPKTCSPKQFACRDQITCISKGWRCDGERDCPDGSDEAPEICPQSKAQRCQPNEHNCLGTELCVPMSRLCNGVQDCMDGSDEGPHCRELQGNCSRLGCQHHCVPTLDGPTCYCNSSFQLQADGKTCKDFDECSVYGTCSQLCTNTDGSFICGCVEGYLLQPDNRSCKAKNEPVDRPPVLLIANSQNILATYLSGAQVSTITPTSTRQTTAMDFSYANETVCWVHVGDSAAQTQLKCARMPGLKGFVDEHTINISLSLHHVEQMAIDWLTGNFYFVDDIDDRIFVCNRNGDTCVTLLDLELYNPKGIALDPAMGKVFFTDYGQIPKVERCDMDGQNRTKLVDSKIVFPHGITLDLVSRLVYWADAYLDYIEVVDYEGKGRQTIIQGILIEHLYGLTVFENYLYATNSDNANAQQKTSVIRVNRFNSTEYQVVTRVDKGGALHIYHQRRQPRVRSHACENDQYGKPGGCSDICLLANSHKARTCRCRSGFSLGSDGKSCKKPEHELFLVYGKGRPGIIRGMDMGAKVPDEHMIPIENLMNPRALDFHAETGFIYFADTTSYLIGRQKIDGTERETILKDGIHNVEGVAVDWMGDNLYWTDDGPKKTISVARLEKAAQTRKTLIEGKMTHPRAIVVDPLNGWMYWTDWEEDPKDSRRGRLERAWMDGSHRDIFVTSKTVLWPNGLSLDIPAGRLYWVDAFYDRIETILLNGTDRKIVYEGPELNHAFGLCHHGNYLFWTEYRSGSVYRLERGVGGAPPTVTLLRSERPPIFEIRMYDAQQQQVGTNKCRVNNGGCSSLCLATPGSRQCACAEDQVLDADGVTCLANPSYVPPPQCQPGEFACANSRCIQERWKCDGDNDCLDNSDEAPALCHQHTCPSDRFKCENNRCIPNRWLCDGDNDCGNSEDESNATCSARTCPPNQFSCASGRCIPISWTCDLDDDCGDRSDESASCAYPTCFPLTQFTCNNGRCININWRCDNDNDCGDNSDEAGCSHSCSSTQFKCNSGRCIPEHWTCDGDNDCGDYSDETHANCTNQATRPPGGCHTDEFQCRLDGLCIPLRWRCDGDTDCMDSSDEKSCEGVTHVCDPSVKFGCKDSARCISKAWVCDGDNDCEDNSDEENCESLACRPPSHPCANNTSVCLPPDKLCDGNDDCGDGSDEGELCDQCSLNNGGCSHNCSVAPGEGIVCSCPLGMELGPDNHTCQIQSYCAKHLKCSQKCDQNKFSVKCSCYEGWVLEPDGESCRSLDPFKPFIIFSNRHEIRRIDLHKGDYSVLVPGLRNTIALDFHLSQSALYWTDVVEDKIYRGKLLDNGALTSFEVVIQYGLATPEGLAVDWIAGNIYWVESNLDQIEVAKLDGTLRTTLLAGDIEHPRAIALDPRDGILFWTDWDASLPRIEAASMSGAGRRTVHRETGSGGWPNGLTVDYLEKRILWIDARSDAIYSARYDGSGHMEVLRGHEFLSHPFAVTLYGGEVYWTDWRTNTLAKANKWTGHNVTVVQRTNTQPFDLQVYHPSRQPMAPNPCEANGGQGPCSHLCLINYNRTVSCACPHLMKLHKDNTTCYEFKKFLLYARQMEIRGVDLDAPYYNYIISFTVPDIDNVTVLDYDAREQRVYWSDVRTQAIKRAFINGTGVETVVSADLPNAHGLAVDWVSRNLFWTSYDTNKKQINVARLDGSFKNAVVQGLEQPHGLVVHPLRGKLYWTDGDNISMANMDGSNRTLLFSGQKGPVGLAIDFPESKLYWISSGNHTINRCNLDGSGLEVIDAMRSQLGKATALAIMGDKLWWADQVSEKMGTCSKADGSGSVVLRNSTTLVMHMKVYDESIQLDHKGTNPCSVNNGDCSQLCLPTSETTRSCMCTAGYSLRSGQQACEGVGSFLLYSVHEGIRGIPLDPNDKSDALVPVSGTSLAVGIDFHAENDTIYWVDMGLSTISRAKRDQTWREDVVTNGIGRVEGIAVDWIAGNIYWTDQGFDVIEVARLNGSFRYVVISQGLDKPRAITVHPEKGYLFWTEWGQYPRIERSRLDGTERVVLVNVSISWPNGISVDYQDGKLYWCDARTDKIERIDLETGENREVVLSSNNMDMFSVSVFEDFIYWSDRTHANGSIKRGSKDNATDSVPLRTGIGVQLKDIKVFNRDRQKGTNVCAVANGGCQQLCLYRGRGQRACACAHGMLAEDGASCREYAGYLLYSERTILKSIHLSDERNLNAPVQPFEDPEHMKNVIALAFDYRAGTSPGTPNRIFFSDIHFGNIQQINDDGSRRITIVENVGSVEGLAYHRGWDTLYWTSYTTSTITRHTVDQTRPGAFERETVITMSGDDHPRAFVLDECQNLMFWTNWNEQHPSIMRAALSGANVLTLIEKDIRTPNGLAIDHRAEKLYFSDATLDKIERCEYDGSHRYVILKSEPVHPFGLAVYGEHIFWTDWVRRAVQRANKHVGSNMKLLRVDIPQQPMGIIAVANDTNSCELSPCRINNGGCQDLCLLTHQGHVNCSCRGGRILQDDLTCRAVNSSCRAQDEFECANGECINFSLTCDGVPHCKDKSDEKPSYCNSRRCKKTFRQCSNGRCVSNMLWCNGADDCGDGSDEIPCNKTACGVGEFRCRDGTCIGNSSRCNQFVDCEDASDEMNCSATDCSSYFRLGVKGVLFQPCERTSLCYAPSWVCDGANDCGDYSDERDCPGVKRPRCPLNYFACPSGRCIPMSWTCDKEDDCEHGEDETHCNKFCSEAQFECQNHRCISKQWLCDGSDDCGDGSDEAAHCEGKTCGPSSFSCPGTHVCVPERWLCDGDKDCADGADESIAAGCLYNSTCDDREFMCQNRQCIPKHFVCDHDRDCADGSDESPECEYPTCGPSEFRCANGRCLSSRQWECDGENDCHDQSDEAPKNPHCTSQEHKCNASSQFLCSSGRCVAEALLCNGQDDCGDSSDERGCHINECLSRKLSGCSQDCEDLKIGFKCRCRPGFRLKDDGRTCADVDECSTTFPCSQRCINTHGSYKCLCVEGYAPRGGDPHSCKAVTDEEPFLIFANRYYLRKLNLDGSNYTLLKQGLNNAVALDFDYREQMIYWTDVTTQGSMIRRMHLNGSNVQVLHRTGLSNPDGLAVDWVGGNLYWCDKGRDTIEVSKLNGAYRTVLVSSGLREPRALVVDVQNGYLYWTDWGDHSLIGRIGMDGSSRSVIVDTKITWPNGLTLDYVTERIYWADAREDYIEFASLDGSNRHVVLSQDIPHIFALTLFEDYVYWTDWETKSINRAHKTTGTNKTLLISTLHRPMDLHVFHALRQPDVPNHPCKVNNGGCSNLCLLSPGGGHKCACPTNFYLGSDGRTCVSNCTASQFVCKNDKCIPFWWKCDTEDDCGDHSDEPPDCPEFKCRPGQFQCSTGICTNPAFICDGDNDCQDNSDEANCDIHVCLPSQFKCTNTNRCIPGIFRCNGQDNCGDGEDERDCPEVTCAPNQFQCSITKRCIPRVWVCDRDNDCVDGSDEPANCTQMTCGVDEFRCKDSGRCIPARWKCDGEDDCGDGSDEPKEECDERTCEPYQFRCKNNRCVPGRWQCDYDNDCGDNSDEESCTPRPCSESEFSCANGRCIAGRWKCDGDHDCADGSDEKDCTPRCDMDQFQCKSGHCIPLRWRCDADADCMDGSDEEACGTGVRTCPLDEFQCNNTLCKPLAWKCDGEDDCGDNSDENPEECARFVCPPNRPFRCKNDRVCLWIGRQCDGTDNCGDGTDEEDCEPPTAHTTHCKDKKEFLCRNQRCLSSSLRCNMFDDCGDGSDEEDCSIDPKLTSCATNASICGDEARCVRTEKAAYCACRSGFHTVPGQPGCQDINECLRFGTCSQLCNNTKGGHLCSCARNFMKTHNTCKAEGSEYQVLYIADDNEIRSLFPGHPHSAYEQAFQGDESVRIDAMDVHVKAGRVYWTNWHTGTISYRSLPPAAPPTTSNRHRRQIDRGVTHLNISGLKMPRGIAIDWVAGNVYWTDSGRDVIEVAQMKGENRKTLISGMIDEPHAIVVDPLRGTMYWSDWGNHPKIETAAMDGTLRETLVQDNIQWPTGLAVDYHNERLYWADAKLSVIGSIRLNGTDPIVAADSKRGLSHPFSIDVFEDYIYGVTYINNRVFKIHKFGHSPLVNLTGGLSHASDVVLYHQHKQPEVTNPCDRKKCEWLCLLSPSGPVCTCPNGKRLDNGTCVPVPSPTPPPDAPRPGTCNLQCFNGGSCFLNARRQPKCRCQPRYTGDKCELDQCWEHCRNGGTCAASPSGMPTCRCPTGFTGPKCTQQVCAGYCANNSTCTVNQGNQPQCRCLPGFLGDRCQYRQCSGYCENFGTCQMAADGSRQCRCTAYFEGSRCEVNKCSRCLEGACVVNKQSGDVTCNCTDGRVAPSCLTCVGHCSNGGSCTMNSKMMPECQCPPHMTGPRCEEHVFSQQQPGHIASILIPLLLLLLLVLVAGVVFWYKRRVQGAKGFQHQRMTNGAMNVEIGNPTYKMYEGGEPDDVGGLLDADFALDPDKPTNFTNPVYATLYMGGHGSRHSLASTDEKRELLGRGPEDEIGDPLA
UniProt Q96FQ7: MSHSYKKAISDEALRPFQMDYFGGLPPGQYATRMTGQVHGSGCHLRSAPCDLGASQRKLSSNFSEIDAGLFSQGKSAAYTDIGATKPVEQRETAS
UniProt Q08380: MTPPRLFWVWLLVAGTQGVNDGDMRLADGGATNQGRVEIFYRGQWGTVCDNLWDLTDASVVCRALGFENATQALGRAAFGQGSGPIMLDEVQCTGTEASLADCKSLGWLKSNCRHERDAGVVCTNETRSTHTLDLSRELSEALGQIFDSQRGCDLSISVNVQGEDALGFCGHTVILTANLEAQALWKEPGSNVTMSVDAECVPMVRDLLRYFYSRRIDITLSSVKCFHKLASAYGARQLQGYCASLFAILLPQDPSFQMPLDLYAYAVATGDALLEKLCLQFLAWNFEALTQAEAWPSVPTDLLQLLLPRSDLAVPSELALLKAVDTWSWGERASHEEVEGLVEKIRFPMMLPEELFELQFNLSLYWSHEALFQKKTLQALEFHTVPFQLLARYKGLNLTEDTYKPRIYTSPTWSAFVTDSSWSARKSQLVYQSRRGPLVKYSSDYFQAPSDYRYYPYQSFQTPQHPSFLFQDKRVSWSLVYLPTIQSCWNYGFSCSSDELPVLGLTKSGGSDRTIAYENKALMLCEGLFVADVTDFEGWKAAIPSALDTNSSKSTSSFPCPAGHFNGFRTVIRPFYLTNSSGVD

The list shows a part of the results.

Compound in the assay: c1cc(OCCN2CCCCC2)cc(-c2n[nH]c3ccc(-c4nnc[nH]4)cc23)c1
The experiment in a line: log2 fold change, soluble protein after heating vs DMSO (PISA); higher = thermal stabilisation; K562 cells, 10 uM, 30 min; active = over 0.2 and 3.5 SD of the protein, either way, in both replicates (recomputed). The method, boiled down: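 For each measurement, 10 μM compound was applied for 30 min to K562 cells at 2×10^6 cells/mL. Aliquots were heated for 3 min across 48°C-58°C, pooled, and extracted in PBS with 0.5% NP-40 at 4°C; the supernatant after 21,000xg for 90 min was soluble protein. This was quantified by TMTpro 16plex LC-MS/MS with channel sums equalised, and thermal stability was reported relative to control samples from duplicates, on a log2 fold-change scale.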
With LIMD2 (UniProt Q9BT23), the log2 fold change is inactive: -0.158.

In the case of LRG1 (UniProt P02750), the log2 fold change is inactive: 0.014.

On to LEPROT (UniProt O15243), for which the log2 fold change is inactive: -0.072.

On to LIG4 (UniProt P49917), for which the log2 fold change was inactive: -0.012.

On to LARP1B, A0A3B3ISF0, for which the log2 fold change is inactive: -0.48.

In the case of LRP1 (UniProt Q07954), the log2 fold change is inactive: 0.089.

LRCH4 (UniProt O75427): the log2 fold change is inactive: -0.062.

For LINC00526 (UniProt Q96FQ7), the log2 fold change is inactive: 0.035.

With LPL (UniProt P06858), the log2 fold change was inactive: -0.243.

On to LGALS3BP (UniProt Q08380), for which the log2 fold change was inactive: 0.005.

Consider LOR (UniProt P23490), for which the log2 fold change was inactive: 1.57.
